Measurements from US9018172B2 (Massachusetts Institute of Technology, priority 2012, dated 2015).

Test: general procedure: peptide synthesis; MBHA resin (Anaspec); HBTU

Substance | step yield (coupling step) [%] | step yield (late stage modification step) [%]
stapled [Val^1-Leu^22]-[Cys^23-Gly^40]-[Cys^41-Lys^58] peptide | 34 | 
stapled [Val^1-Lys^58] peptides |  | 78.3
